{"source": "PubChem BioAssay AID2685", "about": "(National Center for Advancing Translational Sciences (NCATS), 2010)", "note": "Among all 320,000 compounds or so, about 2,100 (0.66%) were called active. The shares of active, inactive and inconclusive entries below differ from those in the screen. The call rests on the fitted dose curve; in most records, active means well fitted inhibition curve with a large enough effect in the signal ratio, with a control signal flat (not every such curve was filed as active); inconclusive means small, poorly fitted or top-dose-only effect, or effect the other way, or a change in a side signal; inactive means flat fitted curve, though single readings scatter; the % refers to the signal ratio. A potency beside an inconclusive call is a rough fit, not a confirmed value."}
{"experiment": "qHTS Assay for Lipid Storage Modulators in Drosophila S3 Cells; further: potency means the concentration at half of the fitted maximal effect; on lipid storage change, negative = inhibition: on the % scale 0 is the no-effect control and ±100 the full control effect", "conditions": "BODIPY lipid droplet fluorescence, 18-24 h, cells fed with added oleic acid; lipid storage change, negative = inhibition: at 46.1 µM (top of the series) unless noted", "how_it_was_run": "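Drosophila S3 cells loaded with oleic acid (400 uM, as added) and compounds at several concentrations; lipid droplets imaged by 488-nm laser-scanning cytometry, 500–530 nm intensity and object ratio to cell channel. Percent activity normalized to 20 uM Triacsin C.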"}
{"molecule": "Cc1nn(C(C)C(=O)NC2CCCCC2)c(=O)c2nn(-c3ccccc3)c(C)c12", "note": "(centres undefined)", "Potency": "inconclusive: 29.1 µM [activator, single point]"}
{"molecule": "O=C(NC1CC1)C1=C[C@H](c2ccc(C(F)(F)F)cc2)C[C@H](OCc2ccc(CO)cc2)O1", "lipid storage change, negative = inhibition": "inconclusive: 13.3%"}
{"molecule": "CCN(CC)S(=O)(=O)c1cc(C(=O)O)ccc1OC", "Potency": "inconclusive: 0.517 µM [falling, full curve, poor fit]"}
{"molecule": "COc1cccc(N2CCN(c3ccc4nnc(CCC(=O)Nc5ccc(OC)c(OC)c5)n4n3)CC2)c1", "lipid storage change, negative = inhibition": "inconclusive: -22%"}
{"molecule": "O=C(CCCN1C(=O)c2cccc3cccc(c23)C1=O)N1CCN(c2ccccc2O)CC1", "Potency": "inconclusive: 29.1 µM [falling, single point]"}
{"molecule": "COc1ccc(C)cc1NC(=O)CCCN1C(=O)CN(C)C1=O", "Potency": "inconclusive: 13 µM [activator, partial curve]"}
{"molecule": "CC(NC(=O)c1ccco1)c1nc(-c2ccccc2)no1", "note": "(centres undefined)", "Potency": "active: 25.9 µM"}
{"molecule": "COc1cc(C(=O)NCCCCCC(=O)O)cc(OC)c1OC", "lipid storage change, negative = inhibition": "inconclusive: 3.08% [at 9.22 µM]"}
{"molecule": "Cc1nn(-c2ccccc2)c(C)c1C(=O)OCC(=O)N1c2ccccc2NC(=O)C1(C)C", "Potency": "inconclusive: 1.03 µM [falling, full curve, poor fit]"}
{"molecule": "C=CCn1ncc(OC)c(Cl)c1=O", "lipid storage change, negative = inhibition": "inconclusive: 35.5%"}
{"molecule": "CC1Sc2ccc(S(=O)(=O)CCC(=O)Nc3cc(F)ccc3F)cc2NC1=O", "note": "(centres undefined)", "lipid storage change, negative = inhibition": "inconclusive: 29%"}
{"molecule": "OCc1ccccc1OCCCOc1cccc2cccnc12", "lipid storage change, negative = inhibition": "inconclusive: 10.1%"}
{"molecule": "Cc1cccc(Nc2nnc(SCC3CCCCO3)s2)c1C", "note": "(centres undefined)", "lipid storage change, negative = inhibition": "inconclusive: -20.6%"}
{"molecule": "COc1cccc(CN(C)C(=O)CCN=C2NS(=O)(=O)c3ccccc32)c1OC", "Potency": "inconclusive: 0.0291 µM [falling, full curve, poor fit]"}
{"molecule": "CCO[C@@H]1OC(C(=O)Nc2ccccc2)=C[C@H](C2CC2)[C@H]1CCCO", "Potency": "inconclusive: 13 µM [falling, partial curve, poor fit]"}
{"molecule": "CN(C)c1ccc(C(=O)N2CCCC2)cc1", "lipid storage change, negative = inhibition": "inconclusive: 10.5%"}
{"molecule": "O=S(=O)(NCc1ccncc1)c1ccc(Br)s1", "lipid storage change, negative = inhibition": "inconclusive: -102%"}
{"molecule": "O=C(/C=C/c1ccc([N+](=O)[O-])cc1)Oc1ccc(/C=N/NC(=O)c2ccncc2)cc1", "Potency": "inconclusive: 6.51 µM [activator, single point]"}
{"molecule": "S=C(NCC1CCCO1)NC1CC1", "note": "(centres undefined)", "Potency": "inconclusive: 1.03 µM [falling, full curve, poor fit]"}
{"molecule": "Cc1ccc(-c2csc(NC(=O)c3ccc([N+](=O)[O-])o3)n2)cc1", "Potency": "inconclusive: 0.58 µM [falling, single point]"}
{"molecule": "COc1ccc(OC)c(-c2cc(C(=O)Nc3c(C)nn(Cc4ccccc4C)c3C)no2)c1", "lipid storage change, negative = inhibition": "inconclusive: 17.9%"}
{"molecule": "COc1ccc2c(c1)C=C(C(=O)OCc1cccnc1)CO2", "lipid storage change, negative = inhibition": "inconclusive: 17%"}
{"molecule": "COc1ccccc1CNC(=O)c1c(-c2ccccc2Cl)noc1C", "lipid storage change, negative = inhibition": "inconclusive: 15.6%"}
{"molecule": "COC(=O)CN1C(=O)[C@H]2[C@@H](c3ccc(C)o3)N3C(=O)CN(CC4CC4)C(=O)[C@@]3(C)[C@H]2C1=O", "lipid storage change, negative = inhibition": "inconclusive: 25%"}
{"molecule": "O=C(CCC(=O)N1CCN(c2ccccn2)CC1)Nc1nnc(C2CCCCC2)s1", "lipid storage change, negative = inhibition": "inconclusive: 25.8%"}
{"molecule": "COC(=O)CSc1nnc(-c2ccc(OC)c(OC)c2)o1", "lipid storage change, negative = inhibition": "inconclusive: 8.88%"}
{"molecule": "CCOC(=O)c1c(NC(=O)CNCC(O)CO)sc(C)c1C", "note": "(centres undefined)", "lipid storage change, negative = inhibition": "inconclusive: 12.7%"}
{"molecule": "O=C1Nc2ccccc2OC1CC(=O)N1CCN(c2cccc(C(F)(F)F)c2)CC1", "note": "(centres undefined)", "lipid storage change, negative = inhibition": "inconclusive: 30.2%"}
{"molecule": "COc1ccc2c(c1)[nH]c1c(=O)n(/N=C/C3C(C)C=C(C)CC3C)c(=O)[nH]c12", "note": "(centres undefined)", "lipid storage change, negative = inhibition": "inconclusive: -16.7%"}
{"molecule": "COC(=O)c1ccc(-n2nnnc2SCc2ccccc2OC)cc1", "lipid storage change, negative = inhibition": "inconclusive: 8.26%"}
{"molecule": "CCCN1CCN(CCCNC(=O)C(CC)n2nc(C)n3c(cc4occc43)c2=O)CC1", "note": "(centres undefined)", "lipid storage change, negative = inhibition": "inconclusive: 204%"}
{"molecule": "CCOC(=O)c1nn(-c2cccc(OC)c2)c(-c2ccccc2)c1C(=O)c1ccccc1", "Potency": "inconclusive: 29.1 µM [activator, single point]"}
{"molecule": "COc1ccc(C)cc1NCc1ccc(OC)c(C)c1OC", "lipid storage change, negative = inhibition": "inconclusive: -29.6%"}
{"molecule": "Nc1ccc(Oc2ccc3c(c2)C(=O)NC3=O)cc1", "lipid storage change, negative = inhibition": "inconclusive: 42.7%"}
{"molecule": "CCN(CC)S(=O)(=O)c1cccc(NC(=O)C2SC(=Nc3ccc(C)cc3C)C(C(=O)NCC3CCCO3)=C2N)c1", "note": "(centres undefined)", "Potency": "inconclusive: 6.51 µM [falling, single point]"}
{"molecule": "O=C(COC(=O)c1ccc(O)cc1)NCc1ccc2c(c1)OCO2", "lipid storage change, negative = inhibition": "inconclusive: 28.5%"}
{"molecule": "COc1ccc(CC(=O)Nc2cc(S(=O)(=O)N3CCCCC3)ccc2C)cc1OC", "lipid storage change, negative = inhibition": "inactive: -0.673%"}
{"molecule": "CS(=O)(=O)N(CCc1ccccc1)CC(=O)N1CCc2ccccc2C1", "lipid storage change, negative = inhibition": "inconclusive: 10.7%"}
{"molecule": "CCN1CCN(Cc2nnc(-c3ccc(C)cc3)o2)CC1", "Potency": "inconclusive: 7.31 µM [activator, partial curve]"}
{"molecule": "Cc1ccc(SCC(=O)OCC(=O)NC(C)c2ccc(F)cc2)cc1", "note": "(centres undefined)", "Potency": "inconclusive: 0.517 µM [activator, full curve]"}
{"molecule": "CC(=O)c1ccccn1", "lipid storage change, negative = inhibition": "inactive: 9.67%"}
{"molecule": "CC(=O)n1cc(/C=N/NC(=O)c2ccccc2Cl)c2ccccc21", "lipid storage change, negative = inhibition": "inconclusive: -2.91%"}
{"molecule": "COC(=O)c1cc(=O)c2cccc(OC)c2[nH]1", "Potency": "inconclusive: 29.1 µM [cytotoxic, single point]"}
{"molecule": "O=C(O)COc1ccc(Br)cc1C(c1c(C(=O)O)[nH]c2ccccc12)c1c(C(=O)O)[nH]c2ccccc12", "lipid storage change, negative = inhibition": "inconclusive: 0.281%"}
{"molecule": "O=C1C(=O)c2ccccc2C(O)=C1c1ccccc1F", "Potency": "inconclusive: 6.51 µM [falling, single point]"}
{"molecule": "CCCn1nnnc1SCC(=O)N1CCCCC1", "lipid storage change, negative = inhibition": "inconclusive: 35.5%"}
{"molecule": "COc1ccccc1NC(=O)c1c(Nc2ccccc2C)sc(C(=O)Nc2cccc(Cl)c2)c1N", "Potency": "active: 1.64 µM"}
{"molecule": "COc1ccc(CCNc2nc(-c3cccc(NC(C)=O)c3)cs2)cc1OC", "lipid storage change, negative = inhibition": "inconclusive: 95%"}
{"molecule": "COc1ccc(NC(=O)COC(=O)Cc2cccs2)cc1OC", "lipid storage change, negative = inhibition": "inactive: 24.7%"}
